Source: article doi:10.1101/2024.06.28.601286
Where two headings read alike, the source gives them in different places. These are yes or no findings as the source states them, for the method shown. In cells and extracts the contact can be indirect. A yes stands for co-enrichment or nearness to the bait. Other partners may have been found.

Chains of the proteins cited; added tags and fusions are not shown. Residues count along the entry.
UniProt P62491: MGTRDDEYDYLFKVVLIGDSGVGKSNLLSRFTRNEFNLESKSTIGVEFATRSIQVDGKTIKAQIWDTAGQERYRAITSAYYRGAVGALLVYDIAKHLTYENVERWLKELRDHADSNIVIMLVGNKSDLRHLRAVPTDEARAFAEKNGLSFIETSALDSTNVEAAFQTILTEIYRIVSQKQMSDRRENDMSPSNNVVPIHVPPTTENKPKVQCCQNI
UniProt Q5SQI0: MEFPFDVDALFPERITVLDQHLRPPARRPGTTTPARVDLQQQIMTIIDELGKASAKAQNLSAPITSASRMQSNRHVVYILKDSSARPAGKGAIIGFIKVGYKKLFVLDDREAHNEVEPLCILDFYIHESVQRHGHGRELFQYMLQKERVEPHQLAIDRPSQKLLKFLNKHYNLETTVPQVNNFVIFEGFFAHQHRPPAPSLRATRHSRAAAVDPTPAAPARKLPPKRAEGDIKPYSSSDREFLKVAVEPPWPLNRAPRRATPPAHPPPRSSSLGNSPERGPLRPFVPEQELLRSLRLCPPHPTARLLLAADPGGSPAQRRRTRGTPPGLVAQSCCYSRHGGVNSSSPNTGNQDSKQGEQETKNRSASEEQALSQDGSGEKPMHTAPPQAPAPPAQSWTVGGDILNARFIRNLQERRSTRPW
UniProt Q07157: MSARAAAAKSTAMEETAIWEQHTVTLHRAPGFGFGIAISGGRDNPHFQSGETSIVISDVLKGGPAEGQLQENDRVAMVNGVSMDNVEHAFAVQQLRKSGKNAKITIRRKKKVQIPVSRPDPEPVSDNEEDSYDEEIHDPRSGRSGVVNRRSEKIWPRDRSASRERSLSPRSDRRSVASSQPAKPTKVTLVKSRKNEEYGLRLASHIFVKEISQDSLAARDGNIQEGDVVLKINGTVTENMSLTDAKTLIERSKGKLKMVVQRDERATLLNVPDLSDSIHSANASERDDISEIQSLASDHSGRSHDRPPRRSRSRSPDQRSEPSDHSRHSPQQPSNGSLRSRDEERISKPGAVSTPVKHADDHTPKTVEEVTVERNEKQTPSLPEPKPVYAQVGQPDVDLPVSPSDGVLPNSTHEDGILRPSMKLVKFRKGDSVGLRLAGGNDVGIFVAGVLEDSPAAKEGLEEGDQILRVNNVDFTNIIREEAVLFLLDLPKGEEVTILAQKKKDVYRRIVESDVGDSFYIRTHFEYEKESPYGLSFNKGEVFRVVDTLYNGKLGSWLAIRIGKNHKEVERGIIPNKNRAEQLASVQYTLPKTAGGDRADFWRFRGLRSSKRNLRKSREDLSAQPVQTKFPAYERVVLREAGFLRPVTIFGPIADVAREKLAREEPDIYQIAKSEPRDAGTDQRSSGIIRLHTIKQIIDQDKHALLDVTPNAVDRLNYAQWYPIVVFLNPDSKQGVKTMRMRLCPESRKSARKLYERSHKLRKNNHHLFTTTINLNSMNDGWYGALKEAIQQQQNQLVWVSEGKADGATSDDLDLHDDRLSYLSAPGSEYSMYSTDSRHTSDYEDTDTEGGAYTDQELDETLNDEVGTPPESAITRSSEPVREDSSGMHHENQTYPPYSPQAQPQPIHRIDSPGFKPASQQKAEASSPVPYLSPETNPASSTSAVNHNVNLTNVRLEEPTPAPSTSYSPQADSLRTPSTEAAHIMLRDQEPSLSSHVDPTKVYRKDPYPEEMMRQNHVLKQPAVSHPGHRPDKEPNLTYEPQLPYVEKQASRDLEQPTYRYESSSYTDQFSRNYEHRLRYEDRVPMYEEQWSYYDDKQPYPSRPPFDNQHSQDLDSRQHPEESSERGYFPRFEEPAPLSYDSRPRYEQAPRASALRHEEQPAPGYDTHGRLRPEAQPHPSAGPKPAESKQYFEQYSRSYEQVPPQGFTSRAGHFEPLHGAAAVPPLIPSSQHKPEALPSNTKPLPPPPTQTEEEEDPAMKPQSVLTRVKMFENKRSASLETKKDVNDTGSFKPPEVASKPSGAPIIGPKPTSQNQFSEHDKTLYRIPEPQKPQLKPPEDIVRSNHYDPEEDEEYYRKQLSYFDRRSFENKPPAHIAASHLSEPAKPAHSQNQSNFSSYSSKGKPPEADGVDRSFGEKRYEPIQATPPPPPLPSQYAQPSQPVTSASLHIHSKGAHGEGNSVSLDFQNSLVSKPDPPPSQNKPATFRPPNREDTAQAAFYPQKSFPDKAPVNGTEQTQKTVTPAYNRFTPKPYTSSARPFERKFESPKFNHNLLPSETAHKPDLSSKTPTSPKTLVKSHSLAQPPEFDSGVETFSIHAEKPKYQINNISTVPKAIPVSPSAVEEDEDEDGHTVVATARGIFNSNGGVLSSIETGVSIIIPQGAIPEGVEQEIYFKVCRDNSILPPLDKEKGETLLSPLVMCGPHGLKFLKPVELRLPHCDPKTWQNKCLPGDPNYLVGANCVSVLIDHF
UniProt Q92598: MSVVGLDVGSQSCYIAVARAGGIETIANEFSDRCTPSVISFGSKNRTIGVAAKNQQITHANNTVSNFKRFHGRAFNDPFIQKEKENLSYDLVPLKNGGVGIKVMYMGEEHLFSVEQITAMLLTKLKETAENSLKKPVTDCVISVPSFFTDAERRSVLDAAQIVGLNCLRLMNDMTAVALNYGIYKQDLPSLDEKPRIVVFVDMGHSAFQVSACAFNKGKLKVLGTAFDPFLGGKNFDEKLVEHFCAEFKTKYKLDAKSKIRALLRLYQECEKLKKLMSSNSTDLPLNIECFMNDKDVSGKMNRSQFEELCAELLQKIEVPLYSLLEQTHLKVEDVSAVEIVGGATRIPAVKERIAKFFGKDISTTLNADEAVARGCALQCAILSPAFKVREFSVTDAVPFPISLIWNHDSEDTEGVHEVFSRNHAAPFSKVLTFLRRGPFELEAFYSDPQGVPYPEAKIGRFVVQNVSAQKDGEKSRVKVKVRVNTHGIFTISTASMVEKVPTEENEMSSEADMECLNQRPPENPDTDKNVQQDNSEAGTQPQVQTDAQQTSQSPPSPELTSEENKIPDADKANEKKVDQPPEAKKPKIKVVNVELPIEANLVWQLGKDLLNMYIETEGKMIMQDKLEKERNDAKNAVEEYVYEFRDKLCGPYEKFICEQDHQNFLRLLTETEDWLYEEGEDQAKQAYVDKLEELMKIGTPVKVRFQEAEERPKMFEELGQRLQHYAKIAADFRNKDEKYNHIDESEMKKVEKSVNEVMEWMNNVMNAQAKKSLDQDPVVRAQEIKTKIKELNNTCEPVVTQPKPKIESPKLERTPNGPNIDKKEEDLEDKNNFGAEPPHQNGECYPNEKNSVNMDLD
UniProt Q9NYQ7, residues 33-3312: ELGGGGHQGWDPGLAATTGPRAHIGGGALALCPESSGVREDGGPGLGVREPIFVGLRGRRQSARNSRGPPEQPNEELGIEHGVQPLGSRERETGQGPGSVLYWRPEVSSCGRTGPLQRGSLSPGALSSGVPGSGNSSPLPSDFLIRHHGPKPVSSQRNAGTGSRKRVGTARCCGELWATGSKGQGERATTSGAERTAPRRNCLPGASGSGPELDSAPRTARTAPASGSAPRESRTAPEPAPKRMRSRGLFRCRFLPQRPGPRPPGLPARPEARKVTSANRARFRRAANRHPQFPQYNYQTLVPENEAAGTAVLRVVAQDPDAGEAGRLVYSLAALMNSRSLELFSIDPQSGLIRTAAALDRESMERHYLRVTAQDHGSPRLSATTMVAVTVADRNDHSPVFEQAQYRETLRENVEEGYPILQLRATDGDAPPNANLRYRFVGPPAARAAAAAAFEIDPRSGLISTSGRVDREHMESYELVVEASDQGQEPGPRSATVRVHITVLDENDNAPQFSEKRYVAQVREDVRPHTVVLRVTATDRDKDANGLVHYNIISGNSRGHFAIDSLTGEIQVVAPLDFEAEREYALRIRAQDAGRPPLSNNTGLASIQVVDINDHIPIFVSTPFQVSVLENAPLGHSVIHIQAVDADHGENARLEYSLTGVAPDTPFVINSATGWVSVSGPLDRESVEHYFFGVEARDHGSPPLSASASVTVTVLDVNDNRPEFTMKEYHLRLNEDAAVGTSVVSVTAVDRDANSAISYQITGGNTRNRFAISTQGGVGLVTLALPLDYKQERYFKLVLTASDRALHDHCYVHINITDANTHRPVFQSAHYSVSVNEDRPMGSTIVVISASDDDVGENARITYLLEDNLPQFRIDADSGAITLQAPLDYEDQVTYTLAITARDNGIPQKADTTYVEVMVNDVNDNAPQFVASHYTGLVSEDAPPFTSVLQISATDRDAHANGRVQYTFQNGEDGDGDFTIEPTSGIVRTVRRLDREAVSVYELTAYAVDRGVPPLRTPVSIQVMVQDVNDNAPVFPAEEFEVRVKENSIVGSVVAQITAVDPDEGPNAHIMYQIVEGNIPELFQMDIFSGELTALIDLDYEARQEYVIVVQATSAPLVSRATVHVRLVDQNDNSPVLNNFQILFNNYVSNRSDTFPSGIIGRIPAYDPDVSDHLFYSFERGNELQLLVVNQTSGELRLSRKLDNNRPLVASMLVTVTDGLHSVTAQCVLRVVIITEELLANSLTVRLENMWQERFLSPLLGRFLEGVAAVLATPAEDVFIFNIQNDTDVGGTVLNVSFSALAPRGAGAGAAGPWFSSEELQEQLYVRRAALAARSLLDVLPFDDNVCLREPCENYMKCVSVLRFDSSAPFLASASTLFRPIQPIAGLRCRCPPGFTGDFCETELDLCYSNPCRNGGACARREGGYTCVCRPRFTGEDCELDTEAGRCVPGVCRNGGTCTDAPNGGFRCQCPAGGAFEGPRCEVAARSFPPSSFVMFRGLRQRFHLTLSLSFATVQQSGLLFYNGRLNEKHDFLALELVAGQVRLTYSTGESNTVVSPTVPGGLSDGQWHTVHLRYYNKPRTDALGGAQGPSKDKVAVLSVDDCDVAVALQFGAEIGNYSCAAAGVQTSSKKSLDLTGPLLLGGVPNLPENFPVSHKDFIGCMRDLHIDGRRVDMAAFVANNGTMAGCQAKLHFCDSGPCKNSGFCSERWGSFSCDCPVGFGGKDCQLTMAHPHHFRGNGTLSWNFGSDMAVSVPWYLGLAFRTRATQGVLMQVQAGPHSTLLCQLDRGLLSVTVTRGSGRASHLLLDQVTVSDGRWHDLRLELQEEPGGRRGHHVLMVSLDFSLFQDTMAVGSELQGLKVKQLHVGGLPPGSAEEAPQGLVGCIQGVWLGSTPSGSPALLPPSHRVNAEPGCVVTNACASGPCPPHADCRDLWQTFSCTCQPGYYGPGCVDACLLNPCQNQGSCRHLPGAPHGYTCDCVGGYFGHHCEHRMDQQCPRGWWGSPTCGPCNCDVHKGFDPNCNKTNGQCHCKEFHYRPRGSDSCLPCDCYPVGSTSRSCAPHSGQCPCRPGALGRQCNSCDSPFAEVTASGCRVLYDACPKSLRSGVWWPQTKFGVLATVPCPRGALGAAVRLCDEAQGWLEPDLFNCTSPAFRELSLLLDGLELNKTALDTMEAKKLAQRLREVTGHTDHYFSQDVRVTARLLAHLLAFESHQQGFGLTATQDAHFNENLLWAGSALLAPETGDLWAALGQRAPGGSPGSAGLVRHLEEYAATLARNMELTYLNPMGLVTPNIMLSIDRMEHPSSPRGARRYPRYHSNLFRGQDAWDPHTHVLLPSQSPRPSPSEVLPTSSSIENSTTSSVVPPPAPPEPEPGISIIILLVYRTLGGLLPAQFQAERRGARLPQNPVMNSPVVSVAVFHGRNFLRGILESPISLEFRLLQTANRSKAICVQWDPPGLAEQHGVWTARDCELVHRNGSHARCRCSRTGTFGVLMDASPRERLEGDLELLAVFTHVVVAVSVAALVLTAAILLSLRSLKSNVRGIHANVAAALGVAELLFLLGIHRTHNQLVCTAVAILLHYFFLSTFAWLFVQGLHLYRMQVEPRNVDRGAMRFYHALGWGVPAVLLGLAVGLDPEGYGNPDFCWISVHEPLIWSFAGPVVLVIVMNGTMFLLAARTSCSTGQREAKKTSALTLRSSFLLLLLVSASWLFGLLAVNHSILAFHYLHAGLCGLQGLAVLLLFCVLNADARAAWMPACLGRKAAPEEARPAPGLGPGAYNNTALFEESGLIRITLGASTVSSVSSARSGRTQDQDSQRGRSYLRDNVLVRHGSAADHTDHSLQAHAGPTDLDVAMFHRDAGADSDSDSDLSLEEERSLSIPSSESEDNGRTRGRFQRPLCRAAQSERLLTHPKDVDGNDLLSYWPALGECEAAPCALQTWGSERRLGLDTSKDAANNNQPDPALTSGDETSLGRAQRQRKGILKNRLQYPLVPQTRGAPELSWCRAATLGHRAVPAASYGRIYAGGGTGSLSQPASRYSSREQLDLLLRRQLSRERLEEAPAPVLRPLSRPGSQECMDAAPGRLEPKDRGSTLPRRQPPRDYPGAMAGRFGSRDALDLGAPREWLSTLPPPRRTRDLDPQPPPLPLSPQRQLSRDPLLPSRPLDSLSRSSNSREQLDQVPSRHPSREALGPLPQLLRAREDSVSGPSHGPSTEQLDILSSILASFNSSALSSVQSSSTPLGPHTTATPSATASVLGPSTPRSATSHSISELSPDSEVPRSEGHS

Legend:
Test in all cases: proximity labelling
[1] = biological target: BirA-0N4R^HA (human) (UniProt P10636)
[2] = biological target: BirA-0N3R^HA (human) (UniProt P10636)
[3] = biological target: BirA-0N3R^HA (human) (UniProt P10636); remark: listed apart in the source
[4] = biological target: BirA-0N4R^HA (human) (UniProt P10636); remark: listed apart in the source

Molecule: RAB11A (from UniProt P62491 1-216)
- binding [1]: binds

Molecule: ATAT1 (from UniProt Q5SQI0 1-421) (enzyme)
- binding [1]: binds

Molecule: TJP1 (from UniProt Q07157 1-1748)
- binding [2]: binds

Molecule: heat shock protein HSPH1 (from UniProt Q92598 1-858)
- binding [1]: binds
- binding [2]: binds

Molecule: GPI (from UniProt P06744 1-558) (enzyme)
- binding [1]: binds

Molecule: G-protein coupled receptor CELSR3 (from UniProt Q9NYQ7 33-3312)
- binding [1]: binds
- binding [2]: binds

B1: SH3PXD2B (protein, UniProt A1X283 1-911)
chain: MPPRRSIVEVKVLDVQKRRVPNKHYVYIIRVTWSSGSTEAIYRRYSKFFDLQMQMLDKFPMEGGQKDPKQRIIPFLPGKILFRRSHIRDVAVKRLIPIDEYCKALIQLPPYISQCDEVLQFFETRPEDLNPPKEEHIGKKKSGGDQTSVDPMVLEQYVVVANYQKQESSEISLSVGQVVDIIEKNESGWWFVSTAEEQGWVPATCLEGQDGVQDEFSLQPEEEEKYTVIYPYTARDQDEMNLERGAVVEVIQKNLEGWWKIRYQGKEGWAPASYLKKNSGEPLPPKPGPGSPSHPGALDLDGVSRQQNAVGREKELLSSQRDGRFEGRPVPDGDAKQRSPKMRQRPPPRRDMTIPRGLNLPKPPIPPQVEEEYYTIAEFQTTIPDGISFQAGLKVEVIEKNLSGWWYIQIEDKEGWAPATFIDKYKKTSNASRPNFLAPLPHEVTQLRLGEAAALENNTGSEATGPSRPLPDAPHGVMDSGLPWSKDWKGSKDVLRKASSDMSASAGYEEISDPDMEEKPSLPPRKESIIKSEGELLERERERQRTEQLRGPTPKPPGVILPMMPAKHIPPARDSRRPEPKPDKSRLFQLKNDMGLECGHKVLAKEVKKPNLRPISKSKTDLPEEKPDATPQNPFLKSRPQVRPKPAPSPKTEPPQGEDQVDICNLRSKLRPAKSQDKSLLDGEGPQAVGGQDVAFSRSFLPGEGPGRAQDRTGKQDGLSPKEISCRAPPRPAKTTDPVSKSVPVPLQEAPQQRPVVPPRRPPPPKKTSSSSRPLPEVRGPQCEGHESRAAPTPGRALLVPPKAKPFLSNSLGGQDDTRGKGSLGPWGTGKIGENREKAAAASVPNADGLKDSLYVAVADFEGDKDTSSFQEGTVFEVREKNSSGWWFCQVLSGAPSWEGWIPSNYLRKKP
- binding [3]: binds

B2: RALA (protein, UniProt P11233 1-206)
chain: MAANKPKGQNSLALHKVIMVGSGGVGKSALTLQFMYDEFVEDYEPTKADSYRKKVVLDGEEVQIDILDTAGQEDYAAIRDNYFRSGEGFLCVFSITEMESFAATADFREQILRVKEDENVPFLLVGNKSDLEDKRQVSVEEAKNRAEQWNVNYVETSAKTRANVDKVFFDLMREIRARKMEDSKEKNGKKKRKSLAKRIRERCCIL
- binding [4]: binds

B3: MARCKS (protein, UniProt P29966 1-332)
chain: MGAQFSKTAAKGEAAAERPGEAAVASSPSKANGQENGHVKVNGDASPAAAESGAKEELQANGSAPAADKEEPAAAGSGAASPSAAEKGEPAAAAAPEAGASPVEKEAPAEGEAAEPGSPTAAEGEAASAASSTSSPKAEDGATPSPSNETPKKKKKRFSFKKSFKLSGFSFKKNKKEAGEGGEAEAPAAEGGKDEAAGGAAAAAAEAGAASGEQAAAPGEEAAAGEEGAAGGDPQEAKPQEAAVAPEKPPASDETKAAEEPSKVEEKKAEEAGASAAACEAPSAAGPGAPPEQEAAPAEEPAAAAASSACAAPSQEAQPECSPEAPPAEAAE
- binding [4]: binds
